Laboratory results reported in article PMC11642917.
No constants are given. Whether binding was seen depends on the method and setting. Binding seen in cells or lysates may run through a third protein. A yes stands for co-enrichment or nearness to the bait. Other partners may have been found.

Chains of the proteins cited; added tags and fusions are not shown.
UniProt Q17551: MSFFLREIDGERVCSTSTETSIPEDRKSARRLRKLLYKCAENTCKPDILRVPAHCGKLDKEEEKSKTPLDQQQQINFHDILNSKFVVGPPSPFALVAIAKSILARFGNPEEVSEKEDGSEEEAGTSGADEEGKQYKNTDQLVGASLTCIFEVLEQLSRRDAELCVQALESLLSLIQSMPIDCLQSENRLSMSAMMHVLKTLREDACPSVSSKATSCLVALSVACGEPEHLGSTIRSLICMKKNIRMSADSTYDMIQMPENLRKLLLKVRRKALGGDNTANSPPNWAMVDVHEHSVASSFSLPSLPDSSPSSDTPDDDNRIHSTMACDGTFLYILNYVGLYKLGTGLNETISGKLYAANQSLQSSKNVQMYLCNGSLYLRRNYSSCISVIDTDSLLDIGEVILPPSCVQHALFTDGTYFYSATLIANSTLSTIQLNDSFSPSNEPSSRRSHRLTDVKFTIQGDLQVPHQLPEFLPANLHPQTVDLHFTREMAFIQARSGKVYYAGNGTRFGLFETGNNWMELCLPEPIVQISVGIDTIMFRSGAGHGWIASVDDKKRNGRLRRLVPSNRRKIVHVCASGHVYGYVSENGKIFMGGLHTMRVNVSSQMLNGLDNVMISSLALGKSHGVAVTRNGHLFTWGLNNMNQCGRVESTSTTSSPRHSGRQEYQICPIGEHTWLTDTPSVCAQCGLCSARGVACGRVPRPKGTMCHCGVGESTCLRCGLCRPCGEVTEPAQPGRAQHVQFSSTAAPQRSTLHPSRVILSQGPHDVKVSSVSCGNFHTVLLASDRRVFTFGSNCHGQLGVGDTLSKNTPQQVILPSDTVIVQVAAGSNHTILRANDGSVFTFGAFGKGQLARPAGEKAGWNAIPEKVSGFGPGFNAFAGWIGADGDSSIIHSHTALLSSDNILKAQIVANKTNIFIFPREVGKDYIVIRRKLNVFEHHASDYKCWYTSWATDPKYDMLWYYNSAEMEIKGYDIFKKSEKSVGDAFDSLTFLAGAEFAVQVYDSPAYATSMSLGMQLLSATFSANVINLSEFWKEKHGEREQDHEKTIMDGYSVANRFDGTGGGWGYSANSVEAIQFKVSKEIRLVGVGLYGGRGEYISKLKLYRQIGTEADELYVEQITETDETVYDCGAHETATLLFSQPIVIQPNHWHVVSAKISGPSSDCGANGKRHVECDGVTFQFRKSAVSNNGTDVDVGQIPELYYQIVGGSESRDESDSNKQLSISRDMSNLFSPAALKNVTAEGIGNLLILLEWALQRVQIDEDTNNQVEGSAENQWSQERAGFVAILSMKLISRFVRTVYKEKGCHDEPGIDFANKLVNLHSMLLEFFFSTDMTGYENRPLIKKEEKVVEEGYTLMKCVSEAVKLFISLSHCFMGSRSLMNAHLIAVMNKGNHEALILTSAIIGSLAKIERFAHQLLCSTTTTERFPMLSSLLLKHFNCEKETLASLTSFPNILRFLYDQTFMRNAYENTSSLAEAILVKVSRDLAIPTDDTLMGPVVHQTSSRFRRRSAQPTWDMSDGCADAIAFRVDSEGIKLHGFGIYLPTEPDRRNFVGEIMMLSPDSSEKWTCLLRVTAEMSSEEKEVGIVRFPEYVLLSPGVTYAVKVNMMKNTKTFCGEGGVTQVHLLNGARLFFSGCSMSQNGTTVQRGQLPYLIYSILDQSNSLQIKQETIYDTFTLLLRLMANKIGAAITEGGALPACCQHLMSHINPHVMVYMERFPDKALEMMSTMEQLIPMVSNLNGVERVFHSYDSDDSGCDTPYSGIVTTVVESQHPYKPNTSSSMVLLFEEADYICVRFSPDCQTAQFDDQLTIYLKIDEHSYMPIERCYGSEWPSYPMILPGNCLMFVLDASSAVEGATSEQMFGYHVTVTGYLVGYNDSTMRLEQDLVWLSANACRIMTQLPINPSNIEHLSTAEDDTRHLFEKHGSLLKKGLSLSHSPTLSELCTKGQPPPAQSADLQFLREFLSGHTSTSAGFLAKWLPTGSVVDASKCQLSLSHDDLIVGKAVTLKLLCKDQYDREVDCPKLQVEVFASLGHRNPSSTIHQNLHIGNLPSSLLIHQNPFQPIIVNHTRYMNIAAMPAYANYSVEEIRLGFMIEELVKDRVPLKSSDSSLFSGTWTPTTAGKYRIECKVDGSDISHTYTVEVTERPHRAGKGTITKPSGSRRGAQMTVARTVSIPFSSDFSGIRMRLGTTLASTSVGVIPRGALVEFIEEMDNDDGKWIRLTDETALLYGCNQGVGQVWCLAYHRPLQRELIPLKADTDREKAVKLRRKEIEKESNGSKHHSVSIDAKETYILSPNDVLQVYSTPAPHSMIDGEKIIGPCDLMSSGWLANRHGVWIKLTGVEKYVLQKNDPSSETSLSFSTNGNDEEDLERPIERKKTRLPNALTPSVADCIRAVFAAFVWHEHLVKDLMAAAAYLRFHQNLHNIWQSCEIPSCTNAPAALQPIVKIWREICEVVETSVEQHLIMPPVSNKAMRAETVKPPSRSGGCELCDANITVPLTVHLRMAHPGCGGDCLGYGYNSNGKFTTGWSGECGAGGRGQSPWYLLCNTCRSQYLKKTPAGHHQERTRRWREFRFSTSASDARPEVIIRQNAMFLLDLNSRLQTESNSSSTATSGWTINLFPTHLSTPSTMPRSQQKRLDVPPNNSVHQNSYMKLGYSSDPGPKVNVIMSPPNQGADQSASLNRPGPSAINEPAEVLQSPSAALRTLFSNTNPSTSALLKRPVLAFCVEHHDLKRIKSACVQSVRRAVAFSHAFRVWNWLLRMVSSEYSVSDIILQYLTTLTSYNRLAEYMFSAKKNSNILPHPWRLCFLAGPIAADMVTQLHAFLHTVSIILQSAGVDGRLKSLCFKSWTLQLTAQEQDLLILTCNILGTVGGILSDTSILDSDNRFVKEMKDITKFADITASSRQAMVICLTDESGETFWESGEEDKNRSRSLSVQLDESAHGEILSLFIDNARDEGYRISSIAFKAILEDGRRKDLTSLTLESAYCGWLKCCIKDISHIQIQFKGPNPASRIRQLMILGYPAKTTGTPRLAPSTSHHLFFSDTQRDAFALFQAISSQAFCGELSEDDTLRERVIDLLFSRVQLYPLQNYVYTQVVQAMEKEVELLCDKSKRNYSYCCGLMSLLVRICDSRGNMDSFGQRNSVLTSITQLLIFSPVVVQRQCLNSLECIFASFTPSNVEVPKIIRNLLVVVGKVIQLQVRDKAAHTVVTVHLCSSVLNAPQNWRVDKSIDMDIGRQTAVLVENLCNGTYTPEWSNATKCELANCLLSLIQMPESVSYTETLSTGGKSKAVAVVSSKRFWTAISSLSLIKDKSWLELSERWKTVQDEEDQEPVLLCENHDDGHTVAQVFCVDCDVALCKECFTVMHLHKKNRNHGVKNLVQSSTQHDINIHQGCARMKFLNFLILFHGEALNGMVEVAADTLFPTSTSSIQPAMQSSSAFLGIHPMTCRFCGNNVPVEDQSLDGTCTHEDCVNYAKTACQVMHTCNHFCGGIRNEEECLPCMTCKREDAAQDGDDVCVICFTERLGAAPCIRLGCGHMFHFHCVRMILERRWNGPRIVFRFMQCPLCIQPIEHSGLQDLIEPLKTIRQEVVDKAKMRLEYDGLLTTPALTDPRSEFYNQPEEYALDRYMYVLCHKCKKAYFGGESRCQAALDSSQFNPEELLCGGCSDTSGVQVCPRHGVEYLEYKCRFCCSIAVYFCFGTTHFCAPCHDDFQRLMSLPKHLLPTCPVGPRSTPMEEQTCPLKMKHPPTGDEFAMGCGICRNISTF
UniProt G5ECH7: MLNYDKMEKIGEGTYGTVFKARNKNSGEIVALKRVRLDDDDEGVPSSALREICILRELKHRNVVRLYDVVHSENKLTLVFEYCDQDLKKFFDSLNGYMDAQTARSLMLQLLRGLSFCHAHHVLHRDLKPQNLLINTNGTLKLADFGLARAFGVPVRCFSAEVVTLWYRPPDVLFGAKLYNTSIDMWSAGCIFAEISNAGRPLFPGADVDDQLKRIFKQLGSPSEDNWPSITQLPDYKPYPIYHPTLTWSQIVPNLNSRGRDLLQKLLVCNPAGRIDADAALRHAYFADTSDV

B1: PAT-3 (protein, UniProt Q27874 20-809)
chain: ASDWKTGEVTGKVVEKSEFPCYSLSRDNYTCSACIQYHESCAWCGAPMFDEKKPYARCDSRAKLMEHGCPNSYIEDPATKLDITEDSKLSDQGQVESEEEAVQIKPQEMYVEIRPKSRVRFNVTYRQAVDYPVDLYYLMDLSYSMKDDKQKLSELGDLLAERMRTVTKNFRLGFGSFIDKKLMPFIDPRIEKQLSPCPTPCAEPYGFKHQMSLTTNTAKFKAEVDKAEISGNLDAPEGGFDAVVQALACNKTIGWRERARKMIVFSTDAGFHFAGDGRLAGVVEPNDGTCHLDREGYYTETLNQDYPSIALLHQMIKDRKANVIFAVTKNNQDLYTQLSNALPDVSSSVGVLANDSRNIVDLIEKEYLKISEKIIMVDNANASEGLKLTYRSMCLDGTTLKDTNVCEGIRVGDEVQFEVTLENTHCIDKRDFVLRIGPSGLDETLIVNVKVLCDCDCERQDRIVTNSADCNGGDMVCGVCRCKGGNVGKYCECNRPGMSTAALNEKCKRTNESAICEGRGVCNCGRCECNPRANPEEQISGEFCECDNFNCPRHDRKICAEHGECNCGKCICAPGWTGRACECPISTDSCLSANGKICNGKGECICGRCRCFDSPDGNRYSGAKCEICPTCPTKCVEYKNCVMCQQWQTGPLNETACDQCEFKVIPVEELPNLNETTPCQFVDPADDCTFYYLYYYDEATDNATVWVRKHKDCPPPVPVLAIVLGVIAGIVILGILLLLLWKLLTVLHDRSEYATFNNERLMAKWDTNENPIYKQATTTFKNPVYAGKAN
B2: TNS-1 (protein, UniProt H2L045 1-1354)
chain: MAAAALCCASRKSNKYNNEAGYEVYTISEDQLRLKQKMKDRKEGVQVEYITSRLIVLSCTSETSERKFVESLLKASQQIQNAHNKHIRVWNVSQRRHDISSSLDAIPFGWPSETAPSLEKLCTICKNLDQWMLEHPLNIAVIFCKGGLERCAIVVNAFMRFNAISATDDSVDDRFSMQRFSERFLGPDGPPSYKRYLGYFSSLLSGRISVNSDPLYLHNIILTFFEPINVFLKIYERLVPVYQSKTVALNKSSKFEMDGSLKLRGDIFFKCIVAASSPGSSTRCLFTCQLNTCALELHPINSEGYSVVRLHKEELDLIFNDKKIDNRVTVELVVSHTSGPTTIATAAVQSVHSLLPRNNSYETFELAQDDETNRSRLEVEYSEIRKKSTKSSKSANPINNNQEEEMPVGPPVPPKPSTPIMNGERLGEYGVGGHIGNGDVVPERRGILPASLREKINQKKELEGRATPSIEPDLVGRDRYDKASRCFSYVPAKSMQEAFERPRRTSFSRAIEKRENSVENVSQEEVARTEIPQSYQQNDISTPAKWDEQVEDAKQSALLEELARAPSAMQHNYWGNGEVDNVQVVDQAQRAVITPTSTLQRRPKPPARSGSYRTLNDDAYCSDMDELCDPEYYLNYNSNTAPLPPPRRQEQHAGTRSVQLPRKKMNFDAVTDPLDDVLESTKRLGSAYSVGDVRGGQQQQQEQHNASNDFNFSNTLNNTPTDYRQHYRNRNCQSVTTPRNHHFSTPSREQEADAADTWLSGKLKKVRSKRDIDPDIVRRRTQEKMLLEELKDSAANNDENQHNLPNGHARGAGLQNIDPLAEFRREEERLRNTRSPYGEERWRGRMRGKPPTPPPRESSASPVNSLPRGTPAHHMDRQRHNQSVPLPMHHRQFDEDFDVNSLFNFSHDPRQQSTTLERGGRSLSRGARIQDAYYASQQDLSANNRFNSGQERVAAAIYRAETAHRDMYASGTINRAETPGRYFPENSAVLERSSTPSFPVSRATPLPFHPLLYNNGERGGSGHAAGGGGGGHNGYSTMNNRSASPRLFGGSSTLSRRSSVNSVDTSEIIHHHPLFVKDTSKYWYKPTISREQAINMLRDKPPGTFVVRDSNSFPGAFGLALKVSTPPPGVNPGDGSELVRHFLIEPSPKGVKLKGCNNEPVFGSLSALVYQHSITALALPTKLVLPDFDPAATPEHLSATQALLEQGAACNVVYVGSVDVESLTGNECVKRSIATCSQRAINGDSRAVSVHFKVSSQGVTLTDNTRKVFFRRHFNVQSVIFAGMDPIERRFENTRALGFHDGCIAQARLFAFVARIPSSSENACHVFAELEPEQPGSAVVNFINKVMLAQKNRS
B3: CLP-1 (protein, UniProt P34308 1-780)
chain: MADDEEEIIQKVEVKPDEFNGLIGSIAGNLIRDKVGGAGGDILGGLASNFFGGGGGGGGGGGGGGFGGGNGGFGGGSNYDQGGNGNSGDQQKRKRDMAKDLIGGIFDNVVNRKGKKEQDNYGGGGNYGGGGGNQGGGGGGGFNFNDIGGLINSMGGGGGGGQRQGGGGGGFGDILGGIGSLIGGGGGGQYNGGGGNVNPNNLNGGMVNVIGNLIGEAAHRFLGVDPGTGRIIGAVAGNVIMGLGGKDNSLGNIGKVILDNIISGKFRRDVDPFVRPGPDPDRGGGGSGPSPISPRPTTEPQDFYELRDQCLESKRLFEDPQFLANDSSLFFSKRPPKRVEWLRPGEITREPQLITEGHSRFDVIQGELGDCWLLAAAANLTLKDELFYRVVPPDQSFTENYAGIFHFQFWQYGKWVDVVIDDRLPTSNGELLYMHSASNNEFWSALLEKAYAKLFGSYEALKGGTTSEALEDMTGGLTEFIDLKNPPRNLMQMMMRGFEMGSLFGCSIEADPNVWEAKMSNGLVKGHAYSITGCRIVDGPNGQTCILRIRNPWGNEQEWNGPWSDNSREWRSVPDSVKQDMGLKFDHDGEFWMSFDDFMRNFEKMEICNLGPDVMDEVYQMTGVKAAGMVWAANTHDGAWVRNQTAGGCRNYINTFANNPQFRVQLTDSDPDDDDELCTVIFAVLQKYRRNLKQDGLDNVPIGFAVYDAGNNRGRLSKQFFAANKSAMRSAAFINLREMTGRFRVPPGNYVVVPSTFEPNEEAEFMLRVYTNGFIESEEL
B4: DYN-1 (protein, UniProt P39055 1-830)
chain: MSWQNQGMQALIPVINRVQDAFSQLGTSVSFELPQIAVVGGQSAGKSSVLENFVGKDFLPRGSGIVTRRPLILQLIQDRNEYAEFLHKKGHRFVDFDAVRKEIEDETDRVTGQNKGISPHPINLRVFSPNVLNLTLIDLPGLTKVPVGDQPADIEQQIRDMILTFINRETCLILAVTPANSDLATSDALKLAKEVDPQGLRTIGVLTKLDLMDEGTDAREILENKLFTLRRGYVGVVNRGQKDIVGRKDIRAALDAERKFFISHPSYRHMADRLGTSYLQHTLNQQLTNHIRDTLPTLRDSLQKKMFAMEKDVAEYKNYQPNDPGRKTKALLQMVTQFNADIERSIEGSSAKLVSTNELSGGARINRLFHERFPFEIVKMEIDEKEMRKEIQYAIRNIHGIRVGLFTPDMAFEAIAKKQITRLKEPSLKCVDLVVNELANVIRQCADTMARYPRLRDELERIVVSHMREREQIAKQQIGLIVDYELAYMNTNHEDFIGFSNAEAKASQGQSAKKNLGNQVIRKGWLSLSNVSFVRGSKDNWFVLMSDSLSWYKDDEEKEKKYMLPLDGVKLKDIEGGFMSRNHKFALFYPDGKNIYKDYKQLELGCTNLDEIDAWKASFLRAGVYPEKQKAQEDESQQEMEDTSIDPQLERQVETIRNLVDSYMRIITKTIKDLVPKAVMHLIVNQTGEFMKDELLAHLYQCGDTDALMEESQIEAQKREEMLRMYHACKEALRIISEVNMSTLGDQPPPLPMSDYRPHPSGPSPVPRPAPAPPGGRQAPMPPRGGPGAPPPPGMRPPPGAPGGGGGMYPPLIPTRPGPGGPPPNMAPPR

Columns and labels:
[1] = molecular target: GS::RPM-1 ligase-dead (LD) (C. elegans) (UniProt Q17551); experiment: affinity purification with mass spectrometry; GS-tagged RPM-1 bait captured on IgG-coupled Dynabeads from whole-animal lysates of mixed-stage C. elegans (80 mg total protein, 500 uL beads, 4°C, 4 hours; various detergent conditions); SDS-PAGE, in-gel trypsin digest, LC-MS/MS; GS::GFP negative control; 7 independent experiments; hit = 1.5x or greater total spectra over GS::GFP
GS::RPM-1 (C. elegans) = GS::RPM-1 (C. elegans) (UniProt Q17551); experiment: as above

Molecule	binding [1]	binding (GS::RPM-1 (C. elegans))
CDK-5 (from UniProt G5ECH7 1-292)	binds	–
B1	binds	–
B2	–	binds
B3	–	binds
B4	–	binds
